Results as given in the supplement of paper PMC3741180, “A Novel High Throughput Biochemical Assay to Evaluate the HuR Protein-RNA Complex Formation” (PLoS ONE, 2013).
The list shows a part of the results. Single values are uncertain here, since repeats match poorly.

By UniProt entry, the sequences of proteins in these tests, tags left out.
UniProt Q15717, whole entry: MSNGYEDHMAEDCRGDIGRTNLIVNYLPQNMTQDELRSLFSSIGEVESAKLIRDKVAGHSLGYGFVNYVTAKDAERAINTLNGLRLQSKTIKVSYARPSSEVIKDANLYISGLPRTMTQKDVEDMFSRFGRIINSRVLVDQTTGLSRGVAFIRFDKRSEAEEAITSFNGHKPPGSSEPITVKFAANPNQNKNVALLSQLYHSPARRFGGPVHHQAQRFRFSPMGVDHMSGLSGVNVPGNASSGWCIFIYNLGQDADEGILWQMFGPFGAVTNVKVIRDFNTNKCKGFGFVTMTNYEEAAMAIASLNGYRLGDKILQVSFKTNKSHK

Target: HuR (ELAVL1) - TNFalpha ARE RNA complex (UniProt Q15717)
Assay: AlphaScreen HuR-RNA complex signal Z-score relative to positive controls (secondary screen) (Z-score (SD units of positive control)); higher = more complex signal
Conditions: screen stage: secondary re-screen

Structure (SMILES)	AlphaScreen HuR-RNA complex signal Z-score
CN(C)CCOC(=O)C(c1ccccc1)C1(O)CCCC1 (stereo not drawn)	-0.171
Cc1ccnc(NS(=O)(=O)c2ccc(N)cc2)n1	1.1
COC(=O)C1=C(C)NC(C)=C(C(=O)OC)C1c1ccccc1[N+](=O)[O-]	1.05
Nc1cc(C(Cl)=C(Cl)Cl)c(S(N)(=O)=O)cc1S(N)(=O)=O	1.33
CO/N=C(\C(=O)N[C@@H]1C(=O)N2C(C(=O)O)=C(COC(C)=O)CS[C@H]12)c1csc(N)n1	0.264
CN1CCC[C@@H]1CCO[C@](C)(c1ccccc1)c1ccc(Cl)cc1	1.21
COC(=O)C[C@H]1C(C)(C)C(=O)[C@@H]2CC3=C(CC[C@]4(C)C3=CC(=O)O[C@H]4c3ccoc3)[C@@]1(C)C2=O	-0.213
CCN(Cc1ccncc1)C(=O)C(CO)c1ccccc1 (stereo not drawn)	1.74
S=c1[nH]cnc2nc[nH]c12	1.06
CC(=O)[C@H]1CC[C@H]2[C@@H]3CCC4=CC(=O)CC[C@]4(C)[C@H]3CC[C@]12C	0.806
CCOC(=O)CCC(=O)O[C@H]1[C@H](O[C@@H]2[C@@H](C)[C@H](O[C@H]3C[C@@](C)(OC)[C@@H](O)[C@H](C)O3)[C@@H](C)C(=O)O[C@H](CC)[C@@](C)(O)[C@H](O)[C@@H](C)C(=O)[C@H](C)C[C@@]2(C)O)O[C@H](C)C[C@@H]1N(C)C	1.14
CCN(CC)CCOc1ccc(C(=C(Cl)c2ccccc2)c2ccccc2)cc1	-0.708
C#C[C@]1(O)CC[C@H]2[C@@H]3CCC4=Cc5oncc5C[C@]4(C)[C@H]3CC[C@@]21C	1.32
CC(=O)OCC(CCn1cnc2cnc(N)nc21)COC(C)=O	2.21
NS(=O)(=O)c1cc2c(cc1C(F)(F)F)NCNS2(=O)=O	0.626
Cc1cc(C)nc(NS(=O)(=O)c2ccc(N)cc2)n1	1.55
CO[C@H]1O[C@H](CO)C(O[C@@H]2OC(C(=O)O)[C@@H](O[C@H]3O[C@H](COS(=O)(=O)O)C(O[C@@H]4OC(C(=O)O)[C@@H](O[C@H]5O[C@H](CO)C(O[C@@H]6OC(C(=O)O)[C@@H](O[C@H]7O[C@H](COS(=O)(=O)O)C(O[C@@H]8OC(C(=O)O)=C[C@H](O)C8OS(=O)(=O)O)[C@H](O)[C@H]7NC(C)=O)[C@H](O)[C@H]6O)[C@H](O)[C@H]5NC(C)=O)[C@H](O)[C@H]4O)[C@H](O)[C@H]3NC(C)=O)[C@H](O)[C@H]2O)[C@H](O)[C@H]1NC(C)=O (stereo partly drawn)	1.67

Part of the list above, set out differently:
Structure (SMILES),AlphaScreen HuR-RNA complex signal Z-score
S=c1[nH]cnc2nc[nH]c12,1.06
Cc1cc(C)nc(NS(=O)(=O)c2ccc(N)cc2)n1,1.55

Additional structures

Structure (SMILES)	AlphaScreen HuR-RNA complex signal Z-score
CN(C)CCCN1c2ccccc2CCc2ccccc21	0.979
CCCc1nc2c(C)cc(-c3nc4ccccc4n3C)cc2n1Cc1ccc(-c2ccccc2C(=O)O)cc1	1.8
CN(C)[C@@H]1C(O)=C(C(N)=O)C(=O)[C@@]2(O)C(O)=C3C(=O)c4c(O)ccc(Cl)c4[C@@H](O)[C@H]3C[C@@H]12	1.46
Cc1cc(C)cc(OCC2CNC(=O)O2)c1 (stereo not drawn)	1.6
NC[C@H]1O[C@H](O[C@H]2[C@H](O)[C@@H](O[C@H]3O[C@H](CO)[C@@H](O)[C@H](N)[C@H]3O)[C@H](N)C[C@@H]2N)[C@H](N)C[C@@H]1O	1.72
COC(=O)[C@H]1[C@H]2C[C@@H]3c4[nH]c5cc(OC)ccc5c4CCN3C[C@H]2C[C@@H](OC(=O)c2cc(OC)c(OC)c(OC)c2)[C@@H]1OC	2.13
CN(C)CCOC(c1ccccc1)c1ccccc1	1.06
O=C(c1ccc(OCCN2CCCCC2)cc1)c1c(-c2ccc(O)cc2)sc2cc(O)ccc12	-2.14
CO[C@H]1/C=C/O[C@@]2(C)Oc3c(C)c(O)c4c(O)c(c(/C=N/N5CCN(C)CC5)c(O)c4c3C2=O)NC(=O)/C(C)=C\C=C\[C@H](C)[C@H](O)[C@@H](C)[C@@H](O)[C@@H](C)[C@H](OC(C)=O)[C@@H]1C	1.57
Nc1ccc(S(=O)(=O)Nc2nccs2)cc1	1.61
C[C@]12CC[C@@H]3c4ccc(O)cc4CC[C@H]3[C@@H]1CCC2=O	0.681
CCCCc1nc(Cl)c(CO)n1Cc1ccc(-c2ccccc2-c2nnn[nH]2)cc1	2.5
CC(=O)O[C@]1(C(C)=O)CC[C@H]2[C@@H]3C=C(Cl)C4=CC(=O)[C@@H]5C[C@@H]5[C@]4(C)[C@H]3CC[C@@]21C	0.434
Nc1c2ccccc2nc2ccccc12	1.22
Clc1ccc2c(c1)CCc1cccnc1C2=C1CCNCC1	0.811
C[C@H]1O[C@H](O[C@H]2[C@H](O)[C@@H](O)[C@@H](O[C@H]3[C@H](O)[C@@H](O)C(O)O[C@@H]3CO)O[C@@H]2CO)[C@H](O)[C@@H](O)[C@@H]1N[C@H]1C=C(CO)[C@@H](O)[C@H](O)[C@H]1O (stereo partly drawn)	1.51
